# Laboratory results as given in US12630511B2, “Benzamide derivative, preparation method therefor, and pharmaceutical composition comprising same as active ingredient for prevention or treatment of cancer” (KOREA RESEARCH INSTITUTE OF CHEMICAL TECHNOLOGY, priority 2019, dated 2026).
# At least one compound was matched to its structure with a doubt left.
# Tests used:
# [1] = biological target: T1, EGFR L858R/T790M/C797S mutant enzyme (Homo sapiens, UniProt P00533, C797S/L858R/T790M); assay: Inhibitory capacity against EGFR L858R/T790M/C797S mutant enzyme (Cisbio HTRF); format: biochemical; conditions: summary of Table 2
# T1 construct: purchased SignalChem
# Experimental: Experimental Example 1: Measurement of Inhibitory Capacity Against EGFR L858R/T790M/C797S
# In order to confirm the inhibitory capacity of the compounds prepared in Examples 1 to 13 provided in one aspect of the present invention against EGFR mutation, the following experiment was performed.
# Particularly, the activity of the compounds of the present invention against EGFR mutant enzyme was measured using the HTRF system of Cisbio Co. As an EGFR L858R/T790M/C797S mutant enzyme, a protein provided by SignalChem was purchased and used as an enzyme source.
# The composition of the assay buffer used for the activity measurement was as follows: 50 mM Tris-HCl (pH 7.5), 100 mM NaCl, 7.5 mM MgCl2, 3 mM KCl, 0.01% Tween 20, 0.1% BSA, and 1 mM DTT. […]
# The enzyme reaction was initiated by mixing the component 1 and the component 2 first and then adding the component 3 thereto. […] Finally, the ratio of the fluorescence values at 615 nm and 665 nm was calculated using Envision equipment of Perkin-Elmer to quantitatively measure the enzyme activity and confirm the inhibitory ability of the compounds. The values measured at 7 concentrations of the compound were analyzed using Prism program (version 5.01, Graphpad Software, Inc.), and the IC50 value, an index of the inhibitory ability of the compound, was calculated.
# [2] = test system: Ba/F3 L858R/T790M/C797S (LTC) cells; assay: Anticancer activity in BaF3 cells overexpressing EGFR L858R/T790M/C797S (CellTiter-Glo), alone or combined with cetuximab; format: cell-based; conditions: cells overexpressed with EGFR L858R/T790M/C797S; combined with cetuximab; 72 hours; FIG. 1 and FIG. 2
# Experimental: (§1) Experimental Example 2: Evaluation of Anticancer Activity in BaF3 Cells Overexpressed with Various EGFR Mutations
# (§2) In order to confirm that the compound represented by formula 1 according to the present invention acted as an allosteric inhibitor against EGFR wild-type and mutants, the inhibitory effect on EGFR wild-type and mutants in Ba/F3 cell line was evaluated. In addition, in order to evaluate the cellular activity when the compound according to the present invention was co-administered with an existing drug, the cellular activity according to the combined administration was evaluated using Cetuximab used alone or in combination with chemotherapy in metastatic colorectal cancer and metastatic squamous head and neck cancer.
# (§3) Particularly, the activity of the compound of the present invention against the wild-type and mutant Ba/F3 EGFR cell lines was measured as follows using the CellTiter-Glo system of Promega. […]
# (§4) BaF3 cells were aliquoted in a 96 well cell culture plate at the density of 2500 cells/50 ul per well, to which 50 ul of the compound represented by formula 1 was treated at the concentrations of 0, 0.03, 0.1, 0.3, and 1 μM. […] Finally, the ratio of the fluorescence values at 570 nm was quantitatively measured using a luminometer, and the ability of the compound to inhibit cell viability was confirmed. […]
# [3] = test system: Ba/F3 EGFR L858R/T790M (LT) cells; assay: Anticancer activity in BaF3 cells overexpressing EGFR L858R/T790M (CellTiter-Glo), alone or combined with cetuximab; format: cell-based; conditions: cells overexpressed with EGFR L858R/T790M; combined with cetuximab; 72 hours; FIG. 1 and FIG. 2
# Experimental: as §1, §2, §3, §4
structure (smiles),measurement,setting,value
"O=C(N[C@@H](c1cc2ccccc2[nH]1)c1cc(F)ccc1O)c1cccc(-c2ccc(N3CCNCC3)cc2)c1 [Example 1, (R)—N-((5-fluoro-2-hydroxyphenyl)(1H-indole-2-yl)methyl)-4′-(piperazine-1-yl)-[1,1′-biphenyl]-3-carboxamide]",inhibitory capacity against EGFR L858R/T790M/C797S mutation (in words),[1],excellent inhibitory capacity
same,anticancer activity in combination with cetuximab (cell viability relative to cetuximab only),[2],synergistic anticancer activity
same,anticancer activity in combination with cetuximab (cell viability relative to cetuximab only),[3],synergistic anticancer activity
